Measured values published in paper PMC11941830.
Substitutions are numbered along the chain they refer to. Names may count otherwise. These are yes or no findings as the source states them, for the method shown. For part of these data: Binding seen in cells or lysates may run through a third protein. Some binding calls cover weakened binding; strength is not graded here. Sequences can lack the tags named with a protein. Values belong to the molecule of their own block, whether it stands above or below them.

By UniProt entry, the sequences of proteins in these tests, tags left out. Residues count along the entry.
UniProt P02787, residues 20-698: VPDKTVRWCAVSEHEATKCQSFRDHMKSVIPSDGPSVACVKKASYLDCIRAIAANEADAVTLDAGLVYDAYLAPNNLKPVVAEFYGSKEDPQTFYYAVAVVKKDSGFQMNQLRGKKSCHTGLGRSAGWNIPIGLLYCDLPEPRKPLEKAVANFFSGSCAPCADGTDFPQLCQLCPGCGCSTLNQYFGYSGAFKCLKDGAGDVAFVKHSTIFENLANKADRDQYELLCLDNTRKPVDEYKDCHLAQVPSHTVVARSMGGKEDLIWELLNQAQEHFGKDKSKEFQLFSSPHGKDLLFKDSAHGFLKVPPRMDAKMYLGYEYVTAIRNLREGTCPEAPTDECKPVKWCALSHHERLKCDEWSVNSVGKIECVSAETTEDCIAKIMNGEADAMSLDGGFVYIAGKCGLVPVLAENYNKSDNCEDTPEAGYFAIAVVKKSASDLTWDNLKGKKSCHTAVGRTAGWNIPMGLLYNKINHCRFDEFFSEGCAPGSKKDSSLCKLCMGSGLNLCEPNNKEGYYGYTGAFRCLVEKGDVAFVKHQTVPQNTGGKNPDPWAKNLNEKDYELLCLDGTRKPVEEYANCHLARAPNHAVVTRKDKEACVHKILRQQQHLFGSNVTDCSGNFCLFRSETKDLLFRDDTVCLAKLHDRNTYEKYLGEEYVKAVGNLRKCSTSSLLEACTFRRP

Experiments:
[1] = target: T1, FLAG-tagged secreted extracellular domain of HephD568H (residues 1-1107) (human) (UniProt Q9BQS7); assay: pull-down; FLAG-tagged sec-Heph purified from HEK293T culture medium on FLAG-trap resin; equal amounts of each affinity resin incubated with apo-Tfn or holo-Tfn; pulled-down Tfn quantified by Western blot; both purified
T1 sequence: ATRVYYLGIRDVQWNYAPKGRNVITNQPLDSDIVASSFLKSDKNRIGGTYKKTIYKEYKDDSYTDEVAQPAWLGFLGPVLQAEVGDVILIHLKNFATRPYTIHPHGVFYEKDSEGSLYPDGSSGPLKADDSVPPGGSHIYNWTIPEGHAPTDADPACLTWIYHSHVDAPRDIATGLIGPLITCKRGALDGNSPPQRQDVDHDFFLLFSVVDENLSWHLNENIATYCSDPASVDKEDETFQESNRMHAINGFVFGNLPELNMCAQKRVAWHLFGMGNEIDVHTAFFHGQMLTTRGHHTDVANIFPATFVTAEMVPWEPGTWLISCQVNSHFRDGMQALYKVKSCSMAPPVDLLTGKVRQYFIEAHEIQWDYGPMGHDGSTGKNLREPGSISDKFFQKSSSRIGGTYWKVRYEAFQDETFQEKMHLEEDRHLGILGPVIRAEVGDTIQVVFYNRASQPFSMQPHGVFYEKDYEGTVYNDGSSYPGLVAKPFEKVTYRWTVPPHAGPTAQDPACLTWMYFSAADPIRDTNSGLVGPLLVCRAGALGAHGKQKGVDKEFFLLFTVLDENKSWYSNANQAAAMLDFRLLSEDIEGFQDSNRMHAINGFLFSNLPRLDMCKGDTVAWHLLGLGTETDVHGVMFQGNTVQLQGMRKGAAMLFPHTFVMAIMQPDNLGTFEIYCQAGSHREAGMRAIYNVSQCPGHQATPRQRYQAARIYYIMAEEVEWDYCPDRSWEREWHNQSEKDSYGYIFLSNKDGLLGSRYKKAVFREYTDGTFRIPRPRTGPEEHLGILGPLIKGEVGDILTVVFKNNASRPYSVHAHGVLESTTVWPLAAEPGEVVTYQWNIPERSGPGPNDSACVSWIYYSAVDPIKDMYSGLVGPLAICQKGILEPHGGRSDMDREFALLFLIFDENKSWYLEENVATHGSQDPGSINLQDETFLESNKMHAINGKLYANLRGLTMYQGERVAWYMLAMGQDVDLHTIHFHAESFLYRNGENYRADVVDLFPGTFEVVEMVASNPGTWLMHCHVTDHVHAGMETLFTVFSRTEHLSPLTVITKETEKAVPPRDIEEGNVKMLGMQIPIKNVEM

[2] = target: T2, Human ferroportin tagged with GFP (human) (UniProt Q9NP59); assay: co-IP; HEK293T co-transfected with Fpn1-GFP and HephWT or HephD568H; cells cross-linked before lysis with DSP (0.5 mM, 30 min, 4 °C, membrane-permeable) or DTSSP (1.5 mM, 2 h, 4 °C, membrane-impermeable); RIPA lysate; Fpn1-GFP precipitated with GFP-trap agarose, 1 h at 4 °C; Heph detected by anti-Heph …
T2 sequence: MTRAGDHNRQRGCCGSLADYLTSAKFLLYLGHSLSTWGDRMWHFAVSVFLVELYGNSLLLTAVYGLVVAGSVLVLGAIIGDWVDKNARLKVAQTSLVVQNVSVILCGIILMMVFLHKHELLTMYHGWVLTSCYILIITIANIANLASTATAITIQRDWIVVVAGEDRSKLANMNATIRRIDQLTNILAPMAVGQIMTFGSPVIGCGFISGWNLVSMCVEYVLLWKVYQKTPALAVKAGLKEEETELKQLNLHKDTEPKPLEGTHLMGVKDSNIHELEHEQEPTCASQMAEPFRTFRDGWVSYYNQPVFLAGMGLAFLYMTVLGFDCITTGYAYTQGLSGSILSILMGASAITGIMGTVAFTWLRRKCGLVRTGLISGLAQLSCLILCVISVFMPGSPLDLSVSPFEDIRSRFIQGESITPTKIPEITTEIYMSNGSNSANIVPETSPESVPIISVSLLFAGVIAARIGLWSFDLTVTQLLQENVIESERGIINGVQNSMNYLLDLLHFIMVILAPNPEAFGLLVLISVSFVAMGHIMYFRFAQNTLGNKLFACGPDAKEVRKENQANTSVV

binding [1]: binds
Molecule: Holo-transferrin (iron-loaded transferrin) (from UniProt P02787 20-698)

binding [2]: binds
B1: Full-length human hephaestin, wild type, with a C-terminal FLAG-tag (enzyme, UniProt Q9BQS7-1 24-1158)
chain: ATRVYYLGIRDVQWNYAPKGRNVITNQPLDSDIVASSFLKSDKNRIGGTYKKTIYKEYKDDSYTDEVAQPAWLGFLGPVLQAEVGDVILIHLKNFATRPYTIHPHGVFYEKDSEGSLYPDGSSGPLKADDSVPPGGSHIYNWTIPEGHAPTDADPACLTWIYHSHVDAPRDIATGLIGPLITCKRGALDGNSPPQRQDVDHDFFLLFSVVDENLSWHLNENIATYCSDPASVDKEDETFQESNRMHAINGFVFGNLPELNMCAQKRVAWHLFGMGNEIDVHTAFFHGQMLTTRGHHTDVANIFPATFVTAEMVPWEPGTWLISCQVNSHFRDGMQALYKVKSCSMAPPVDLLTGKVRQYFIEAHEIQWDYGPMGHDGSTGKNLREPGSISDKFFQKSSSRIGGTYWKVRYEAFQDETFQEKMHLEEDRHLGILGPVIRAEVGDTIQVVFYNRASQPFSMQPHGVFYEKDYEGTVYNDGSSYPGLVAKPFEKVTYRWTVPPHAGPTAQDPACLTWMYFSAADPIRDTNSGLVGPLLVCRAGALGADGKQKGVDKEFFLLFTVLDENKSWYSNANQAAAMLDFRLLSEDIEGFQDSNRMHAINGFLFSNLPRLDMCKGDTVAWHLLGLGTETDVHGVMFQGNTVQLQGMRKGAAMLFPHTFVMAIMQPDNLGTFEIYCQAGSHREAGMRAIYNVSQCPGHQATPRQRYQAARIYYIMAEEVEWDYCPDRSWEREWHNQSEKDSYGYIFLSNKDGLLGSRYKKAVFREYTDGTFRIPRPRTGPEEHLGILGPLIKGEVGDILTVVFKNNASRPYSVHAHGVLESTTVWPLAAEPGEVVTYQWNIPERSGPGPNDSACVSWIYYSAVDPIKDMYSGLVGPLAICQKGILEPHGGRSDMDREFALLFLIFDENKSWYLEENVATHGSQDPGSINLQDETFLESNKMHAINGKLYANLRGLTMYQGERVAWYMLAMGQDVDLHTIHFHAESFLYRNGENYRADVVDLFPGTFEVVEMVASNPGTWLMHCHVTDHVHAGMETLFTVFSRTEHLSPLTVITKETEKAVPPRDIEEGNVKMLGMQIPIKNVEMLASVLVAISVTLLLVVLALGGVVWYQHRQRKLRRNRRSILDDSFKLLSFKQ

binding [2]: binds
B2: Full-length human hephaestin variant D568H with a C-terminal FLAG-tag (enzyme, UniProt Q9BQS7-1 24-1158)
chain: B1 chain with D545H
